Binding signal data for 42 sequences are collected here from PMC7819943, “Rice protein-binding microarrays: a tool to detect cis-acting elements near promoter regions in rice”.

The other results are listed elsewhere or left out.

This experiment deals with T1, OsSMF1 (Oryza sativa, UniProt Q6ZLB0 1-436).
T1 sequence: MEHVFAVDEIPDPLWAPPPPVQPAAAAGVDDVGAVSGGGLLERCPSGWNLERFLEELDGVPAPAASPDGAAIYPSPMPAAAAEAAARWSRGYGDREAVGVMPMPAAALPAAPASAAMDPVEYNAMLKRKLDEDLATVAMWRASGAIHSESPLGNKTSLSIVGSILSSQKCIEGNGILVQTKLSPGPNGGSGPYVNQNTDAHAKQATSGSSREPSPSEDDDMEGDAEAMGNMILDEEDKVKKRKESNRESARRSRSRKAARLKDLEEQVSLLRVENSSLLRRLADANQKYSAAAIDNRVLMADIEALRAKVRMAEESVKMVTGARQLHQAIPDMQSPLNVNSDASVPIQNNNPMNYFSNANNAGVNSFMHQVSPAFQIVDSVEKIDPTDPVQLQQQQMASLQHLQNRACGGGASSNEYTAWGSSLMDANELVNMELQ
The experiment can be described thus: protein-binding microarray (RPBM); PBS, 2% BSA, 51.3 ng/ul salmon testes DNA, 50 uM zinc acetate, 200 nM TF, 25 C, 1 h; high values mean tight binding. The settings on record: protein: recombinant; tags: N-terminal polyhistidine and DsRed monomer fusion (pET32a); chain copies: 2; label: CyDye5-dUTP incorporated in the synthesized complementary strand; 3' TTTTT single-stranded linker to array surface; dsDNA, one strand shown. In short, it runs like this: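 Transcription factors were made in E. coli BL21-CodonPlus as N-terminal fusions to a polyhistidine tag and DsRed, then purified on Ni–NTA. After primer extension with Cy5-dUTP and blocking with 2% BSA, a custom Agilent array was exposed for 1 h at 25 °C to 200 nM protein in PBS, 2% BSA, salmon testes DNA and 50 µM zinc acetate. Washed arrays were scanned on an Axon 4000B, and the binding signal is per-feature fluorescence intensity in arbitrary units.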
In the case of “GCAAAGCTCTCAGTTGATGCCGTCTTACGTCTTTTCCATCCGGAGTCACCTAGTGCAG”, the binding signal is 3320 fluorescence intensity (a.u.).

Regarding “ATTTCGATGGGTGGGCTTGGGCTGACAAACAATCACGCTCCGGAGTCACCTAGTGCAG”, the binding signal is 3800 fluorescence intensity (a.u.).

With “CCTGTGCTGACCTCCTCTACCGTGATGGCCTCCTCGACCTCGGAGTCACCTAGTGCAG”, the binding signal was 3420 fluorescence intensity (a.u.). Consider “AAGCAACTAATCCACCTTCACCAACCCACTCCCGTCATCGCGGAGTCACCTAGTGCAG”, for which the binding signal is 31200 fluorescence intensity (a.u.). “TATAAAACTTTGTAGTTTATCAGTTTTCCATTTAAAATCACGGAGTCACCTAGTGCAG”: the binding signal is 27100 fluorescence intensity (a.u.). On to “ATTGCTATGTAGGACTTTTAGCTTATGTGGCACTATATTACGGAGTCACCTAGTGCAG”, for which the binding signal was 5030 fluorescence intensity (a.u.). With “GCCTCTCCCCTGTGATCCAACCAGCATATGACCTGGATCACGGAGTCACCTAGTGCAG”, the binding signal is 3900 fluorescence intensity (a.u.). The value for “CGTTTACCACTCATATATCAATGATACGTGGATTCTCATACGGAGTCACCTAGTGCAG” was 4370 fluorescence intensity (a.u.); that for “CCCCACCCGTCAGCCAAACCCATCCCACCACGAGGAGTGACGGAGTCACCTAGTGCAG” was 18600 fluorescence intensity (a.u.). Regarding “GTTCATTTTAGGTGTGTTTGGTTGACACAGCTGCTTGCGGCGGAGTCACCTAGTGCAG”, the binding signal was 4530 fluorescence intensity (a.u.). “TTGTACCAGCTAACTCATCACCACGCAGGCCAGAGTAGTACGGAGTCACCTAGTGCAG”: the binding signal is 45900 fluorescence intensity (a.u.).

Regarding “CATAGAGCTAACAGGATCTCTGGCCCACGTGTCAGATTCTCGGAGTCACCTAGTGCAG”, the binding signal was 13500 fluorescence intensity (a.u.). As to “GGCAAACGTGAAGGCGTACGTGTCGTCGGCCGCGTGCCACCGGAGTCACCTAGTGCAG”, the binding signal is 4340 fluorescence intensity (a.u.). As for “TTAACAAAGCGAGGGGTGTACGTATTTTGTTCACTCTTTGCGGAGTCACCTAGTGCAG”, the binding signal was 3180 fluorescence intensity (a.u.). The value for “ACCAGGTGGCTACAGCTGGCTAAATACCCAGTCACTACCACGGAGTCACCTAGTGCAG” was 3680 fluorescence intensity (a.u.).

“CGTAGTACATGTTTATACATTATCCATTTGGAAAGGCTTTCGGAGTCACCTAGTGCAG”: the binding signal is 3280 fluorescence intensity (a.u.).

Turning to “TGTCTCGTGGTAATCACGCGGTTACTGTGGTAACCACCTTCGGAGTCACCTAGTGCAG”, the binding signal is 3140 fluorescence intensity (a.u.).

With “CCGTGCCAAAGCATACTCTGTCACCCCAACGGCTTTCTCCCGGAGTCACCTAGTGCAG”, the binding signal was 3370 fluorescence intensity (a.u.).

Take “GCGCCGCCGCGAGATCATCAAGGTGTCGACGCCGCATTCCCGGAGTCACCTAGTGCAG”: the binding signal is 3500 fluorescence intensity (a.u.). With “ATTGATCTTGTTAGTGAGCCTGAAGTATCTTCCTTGGTTGCGGAGTCACCTAGTGCAG”, the binding signal was 28700 fluorescence intensity (a.u.). The value for “TAAGTCACATGCAAATGATGGATGTCATGGTATTTAGGTGCGGAGTCACCTAGTGCAG” was 3260 fluorescence intensity (a.u.).

For the sequence “TGTTGAGTTCTTTAACCCACTGGCAAATTCTTAATTGTCACGGAGTCACCTAGTGCAG”, the binding signal was 21000 fluorescence intensity (a.u.). In the case of “GGGGCTATGTTATGAAGCTTGTGTCATTAGCATAGTCCTACGGAGTCACCTAGTGCAG”, the binding signal is 3710 fluorescence intensity (a.u.). The value for “TCAACCGGGAACTCCCTGCGTAGGAGTACGTCAGTGGCGCCGGAGTCACCTAGTGCAG” was 3230 fluorescence intensity (a.u.). As to “AACTCATGGATGACTGTCTATATACCATCCATATATGTTTCGGAGTCACCTAGTGCAG”, the binding signal was 3340 fluorescence intensity (a.u.). The value for “ACCAAGACGCGGCCCCACTCGTCAGTGACAGAAGAGGCTGCGGAGTCACCTAGTGCAG” was 3580 fluorescence intensity (a.u.); that for “CTGGGAATGGCATGCCACGGCTGAGGAAACCGTGCCGACCCGGAGTCACCTAGTGCAG” was 4510 fluorescence intensity (a.u.); that for “TCGCTACACCACACGCCACGCCTCTCTCTCCCCTAGCTCGCGGAGTCACCTAGTGCAG” was 3230 fluorescence intensity (a.u.). The value for “CCTTAAGATTCCTTATGTGGCTTCATGCGACGTGCATGTGCGGAGTCACCTAGTGCAG” was 4520 fluorescence intensity (a.u.); that for “GCGCCCGAAGAACCTTGTCGTCGTCACCCACCCGCTCCACCGGAGTCACCTAGTGCAG” was 4210 fluorescence intensity (a.u.). Take “CGCGATGCCATGTCCTGCCGACGGCCCCGCATACTCGACACGGAGTCACCTAGTGCAG”: the binding signal is 3710 fluorescence intensity (a.u.). The value for “CATCACCACCACCATCTCCTCTCGCCTCCTCCTCCGCCGCCGGAGTCACCTAGTGCAG” was 14700 fluorescence intensity (a.u.).

Regarding “AACGACCGGTCCGGGTGACACATGCGTTTTGCCCCGGTCACGGAGTCACCTAGTGCAG”, the binding signal is 4980 fluorescence intensity (a.u.). The value for “GAGAGCTCCCTTTTCGTACCACCTCGCCGCGTCGGCTGCTCGGAGTCACCTAGTGCAG” was 4870 fluorescence intensity (a.u.); that for “AACACAAACTCGTTCGCACACGTGGACGCGCCCTCCTGAGCGGAGTCACCTAGTGCAG” was 8640 fluorescence intensity (a.u.). As to “CTTGTCTAGTCCAGGACAACTGGGATGATTGAGCACCAGTCGGAGTCACCTAGTGCAG”, the binding signal is 3170 fluorescence intensity (a.u.). The value for “TAAGTAGAATCGAATACCACCTCAGCCTGATTAATCGGAGCGGAGTCACCTAGTGCAG” was 3340 fluorescence intensity (a.u.); that for “GTGAAATGCGCTTGACATGATCGCCCCACGCACACAAACACGGAGTCACCTAGTGCAG” was 3280 fluorescence intensity (a.u.); that for “AGTTCAGGGATGTTTGACACCTTTGTCTGAAAGCCAATATCGGAGTCACCTAGTGCAG” was 3140 fluorescence intensity (a.u.). The value for “ACCCCGTCCCACATTCGGTTCCTCCCTGCGATTGGATCTGCGGAGTCACCTAGTGCAG” was 3200 fluorescence intensity (a.u.). As to “GACTGGAGACACGTAATCCAGAAATCCGCCTCCCTAGTAGCGGAGTCACCTAGTGCAG”, the binding signal is 6980 fluorescence intensity (a.u.).

On to “GAAAGAGATGATGACGTGGCACCCTGATATGTGGGTCCTACGGAGTCACCTAGTGCAG”, for which the binding signal was 23200 fluorescence intensity (a.u.).
